Among the data in PMC4941282 are binding values, retold here.

Chains of the proteins cited; added tags and fusions are not shown.
UniProt P63104: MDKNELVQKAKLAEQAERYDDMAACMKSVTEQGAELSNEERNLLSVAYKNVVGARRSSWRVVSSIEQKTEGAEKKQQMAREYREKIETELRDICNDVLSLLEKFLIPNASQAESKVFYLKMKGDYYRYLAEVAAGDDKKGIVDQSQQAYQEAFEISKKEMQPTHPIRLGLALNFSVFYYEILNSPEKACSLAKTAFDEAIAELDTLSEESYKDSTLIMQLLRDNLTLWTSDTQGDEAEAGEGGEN
UniProt Q16665: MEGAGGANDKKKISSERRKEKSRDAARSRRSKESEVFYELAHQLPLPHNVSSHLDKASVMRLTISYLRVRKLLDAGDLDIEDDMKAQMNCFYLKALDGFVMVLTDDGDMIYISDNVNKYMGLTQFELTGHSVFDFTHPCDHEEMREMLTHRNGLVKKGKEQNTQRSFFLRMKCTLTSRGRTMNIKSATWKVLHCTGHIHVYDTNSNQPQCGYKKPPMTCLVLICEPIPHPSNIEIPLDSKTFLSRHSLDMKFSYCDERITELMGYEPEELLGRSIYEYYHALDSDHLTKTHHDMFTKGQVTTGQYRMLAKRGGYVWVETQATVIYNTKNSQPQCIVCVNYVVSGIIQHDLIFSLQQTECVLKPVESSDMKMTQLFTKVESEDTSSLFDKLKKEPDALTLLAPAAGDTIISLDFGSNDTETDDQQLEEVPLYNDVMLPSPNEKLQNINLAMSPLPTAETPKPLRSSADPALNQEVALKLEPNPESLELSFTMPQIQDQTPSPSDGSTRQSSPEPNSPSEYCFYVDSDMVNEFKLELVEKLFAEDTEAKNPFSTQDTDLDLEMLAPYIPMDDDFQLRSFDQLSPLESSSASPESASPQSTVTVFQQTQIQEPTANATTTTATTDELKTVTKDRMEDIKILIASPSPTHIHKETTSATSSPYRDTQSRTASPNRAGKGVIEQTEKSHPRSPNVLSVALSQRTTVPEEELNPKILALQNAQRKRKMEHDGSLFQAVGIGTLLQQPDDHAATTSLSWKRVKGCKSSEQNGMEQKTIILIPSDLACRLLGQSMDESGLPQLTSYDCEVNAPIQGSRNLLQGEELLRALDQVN

The target in test [1] is 14-3-3ζ expressed from the pcDNA3 14-3-3ζ plasmid (UniProt P63104). As to the kind of experiment: co-IP; lysates of SMMC-7721 and CSQT-2 cells over-expressing 14-3-3ζ or treated with CoCl2; immunoprecipitated with anti-14-3-3ζ antibody, probed with anti-HIF-1α antibody.
In test [2] the target is 14-3-3ζ in CSQT-2 and SMMC-7721 cells for which no transfection is told (human (endogenous in CSQT-2 and SMMC-7721)) (UniProt P63104). The test is described as above.

Results are given in words; binding and its absence hold for the method and conditions named. Binding seen in cells or lysates may run through a third protein. Some binding calls cover weakened binding; strength is not graded here.

As for “hypoxia-induced factor-1α (from UniProt Q16665 1-826)”, the binding result in test [1] and in test [2] was “binds” throughout.
